28 targets from the supplement of paper PMC10849652 can be followed below.

By UniProt entry, the sequences of proteins in these tests, tags left out. Where a name states a change or a piece, a line headed by the entry shows the natural chain unless it says otherwise.
UniProt Q96PK6: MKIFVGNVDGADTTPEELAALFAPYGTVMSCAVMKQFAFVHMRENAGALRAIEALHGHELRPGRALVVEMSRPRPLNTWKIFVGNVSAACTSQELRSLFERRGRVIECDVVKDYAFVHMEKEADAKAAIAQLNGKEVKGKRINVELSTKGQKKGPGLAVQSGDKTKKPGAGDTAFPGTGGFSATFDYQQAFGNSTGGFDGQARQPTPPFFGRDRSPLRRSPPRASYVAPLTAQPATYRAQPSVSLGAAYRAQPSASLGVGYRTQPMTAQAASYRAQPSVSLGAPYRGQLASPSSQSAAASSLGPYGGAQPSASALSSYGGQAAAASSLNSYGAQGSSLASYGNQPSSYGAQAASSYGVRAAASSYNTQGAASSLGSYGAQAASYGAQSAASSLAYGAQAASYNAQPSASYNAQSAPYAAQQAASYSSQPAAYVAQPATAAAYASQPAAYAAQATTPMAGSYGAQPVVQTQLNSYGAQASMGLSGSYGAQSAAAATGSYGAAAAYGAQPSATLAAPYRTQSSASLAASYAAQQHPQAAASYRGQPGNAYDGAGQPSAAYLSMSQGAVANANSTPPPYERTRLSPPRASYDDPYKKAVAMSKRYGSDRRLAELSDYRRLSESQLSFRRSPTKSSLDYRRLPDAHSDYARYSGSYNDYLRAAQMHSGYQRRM
UniProt Q9H477: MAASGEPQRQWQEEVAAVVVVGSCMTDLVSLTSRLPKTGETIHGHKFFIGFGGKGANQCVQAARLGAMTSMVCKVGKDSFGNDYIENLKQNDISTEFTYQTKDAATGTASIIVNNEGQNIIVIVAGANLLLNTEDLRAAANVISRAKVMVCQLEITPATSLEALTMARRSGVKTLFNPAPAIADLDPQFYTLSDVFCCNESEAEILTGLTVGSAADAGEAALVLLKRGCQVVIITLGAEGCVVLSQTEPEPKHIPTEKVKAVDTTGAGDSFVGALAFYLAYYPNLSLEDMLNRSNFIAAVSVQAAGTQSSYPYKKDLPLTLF
UniProt Q7Z5J4: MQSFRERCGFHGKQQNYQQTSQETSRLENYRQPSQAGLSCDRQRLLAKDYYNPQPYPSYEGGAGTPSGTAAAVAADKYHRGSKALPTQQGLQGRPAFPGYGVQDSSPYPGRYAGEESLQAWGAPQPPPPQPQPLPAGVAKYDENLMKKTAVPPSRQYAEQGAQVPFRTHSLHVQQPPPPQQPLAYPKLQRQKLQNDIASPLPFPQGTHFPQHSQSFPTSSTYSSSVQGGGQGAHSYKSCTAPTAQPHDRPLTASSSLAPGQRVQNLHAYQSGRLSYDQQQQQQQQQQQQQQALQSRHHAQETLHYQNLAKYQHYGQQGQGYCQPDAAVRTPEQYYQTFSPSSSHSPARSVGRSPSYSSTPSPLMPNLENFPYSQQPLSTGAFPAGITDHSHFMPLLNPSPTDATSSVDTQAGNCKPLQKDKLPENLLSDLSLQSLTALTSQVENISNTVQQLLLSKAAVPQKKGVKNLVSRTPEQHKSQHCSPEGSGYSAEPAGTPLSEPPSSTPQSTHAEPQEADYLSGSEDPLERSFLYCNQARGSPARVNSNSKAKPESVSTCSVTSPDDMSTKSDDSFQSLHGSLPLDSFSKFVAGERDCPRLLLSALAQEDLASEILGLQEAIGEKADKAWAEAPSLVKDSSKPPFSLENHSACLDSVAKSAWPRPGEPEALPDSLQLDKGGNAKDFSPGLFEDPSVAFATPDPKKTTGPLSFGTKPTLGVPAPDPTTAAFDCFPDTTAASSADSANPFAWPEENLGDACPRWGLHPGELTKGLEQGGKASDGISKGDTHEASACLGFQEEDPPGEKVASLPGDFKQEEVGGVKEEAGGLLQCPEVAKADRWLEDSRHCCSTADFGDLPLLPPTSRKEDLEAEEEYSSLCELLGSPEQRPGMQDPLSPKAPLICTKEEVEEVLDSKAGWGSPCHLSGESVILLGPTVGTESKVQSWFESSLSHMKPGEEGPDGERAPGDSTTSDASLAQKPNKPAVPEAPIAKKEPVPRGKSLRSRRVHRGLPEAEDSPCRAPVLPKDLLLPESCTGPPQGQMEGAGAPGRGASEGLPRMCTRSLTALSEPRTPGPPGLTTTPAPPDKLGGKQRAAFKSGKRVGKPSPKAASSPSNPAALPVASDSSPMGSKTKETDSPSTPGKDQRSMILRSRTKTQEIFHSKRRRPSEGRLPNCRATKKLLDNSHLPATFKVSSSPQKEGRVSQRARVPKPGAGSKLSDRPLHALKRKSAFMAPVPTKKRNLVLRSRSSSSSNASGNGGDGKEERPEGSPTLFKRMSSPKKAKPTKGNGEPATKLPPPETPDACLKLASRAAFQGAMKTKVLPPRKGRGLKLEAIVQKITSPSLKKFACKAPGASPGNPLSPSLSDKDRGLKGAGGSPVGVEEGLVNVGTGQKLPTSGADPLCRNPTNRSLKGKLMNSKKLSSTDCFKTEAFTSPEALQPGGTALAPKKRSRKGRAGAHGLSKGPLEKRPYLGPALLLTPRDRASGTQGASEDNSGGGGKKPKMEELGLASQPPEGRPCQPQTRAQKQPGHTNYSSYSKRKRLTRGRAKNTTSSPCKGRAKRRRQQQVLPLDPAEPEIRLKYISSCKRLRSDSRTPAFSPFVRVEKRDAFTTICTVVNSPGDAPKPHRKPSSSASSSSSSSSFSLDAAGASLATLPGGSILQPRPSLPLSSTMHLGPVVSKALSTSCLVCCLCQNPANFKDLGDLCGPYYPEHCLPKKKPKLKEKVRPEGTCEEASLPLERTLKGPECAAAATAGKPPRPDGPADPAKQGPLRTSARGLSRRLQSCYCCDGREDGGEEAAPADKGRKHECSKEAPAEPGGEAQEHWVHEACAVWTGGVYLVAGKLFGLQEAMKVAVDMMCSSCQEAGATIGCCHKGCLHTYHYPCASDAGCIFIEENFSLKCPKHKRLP
UniProt P20936: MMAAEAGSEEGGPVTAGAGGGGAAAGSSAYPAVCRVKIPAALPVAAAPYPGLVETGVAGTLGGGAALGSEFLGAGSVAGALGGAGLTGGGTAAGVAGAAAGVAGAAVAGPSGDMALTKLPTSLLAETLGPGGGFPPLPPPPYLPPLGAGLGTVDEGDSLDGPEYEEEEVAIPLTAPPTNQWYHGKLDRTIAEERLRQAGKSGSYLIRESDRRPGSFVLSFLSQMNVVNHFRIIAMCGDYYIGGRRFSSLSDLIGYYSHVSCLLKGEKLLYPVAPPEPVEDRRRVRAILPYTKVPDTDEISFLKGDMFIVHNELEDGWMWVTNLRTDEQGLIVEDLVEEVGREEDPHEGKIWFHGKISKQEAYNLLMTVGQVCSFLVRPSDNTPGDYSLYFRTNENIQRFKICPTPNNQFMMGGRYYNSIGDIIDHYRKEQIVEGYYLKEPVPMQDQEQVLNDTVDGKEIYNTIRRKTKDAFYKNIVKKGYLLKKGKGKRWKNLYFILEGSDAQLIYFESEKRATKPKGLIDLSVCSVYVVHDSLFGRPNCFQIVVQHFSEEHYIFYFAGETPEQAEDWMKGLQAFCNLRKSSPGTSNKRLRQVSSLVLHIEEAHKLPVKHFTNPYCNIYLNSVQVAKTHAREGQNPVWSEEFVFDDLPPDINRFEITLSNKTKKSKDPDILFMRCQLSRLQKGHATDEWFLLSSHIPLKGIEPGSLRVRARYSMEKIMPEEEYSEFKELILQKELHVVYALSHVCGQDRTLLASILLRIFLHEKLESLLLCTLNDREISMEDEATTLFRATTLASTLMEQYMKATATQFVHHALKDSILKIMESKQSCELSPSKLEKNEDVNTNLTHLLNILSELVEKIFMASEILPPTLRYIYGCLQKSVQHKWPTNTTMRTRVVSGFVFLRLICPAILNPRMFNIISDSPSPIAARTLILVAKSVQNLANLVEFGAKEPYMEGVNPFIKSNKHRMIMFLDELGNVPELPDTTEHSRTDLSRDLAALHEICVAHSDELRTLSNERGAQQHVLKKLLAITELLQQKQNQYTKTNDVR
UniProt Q86U06: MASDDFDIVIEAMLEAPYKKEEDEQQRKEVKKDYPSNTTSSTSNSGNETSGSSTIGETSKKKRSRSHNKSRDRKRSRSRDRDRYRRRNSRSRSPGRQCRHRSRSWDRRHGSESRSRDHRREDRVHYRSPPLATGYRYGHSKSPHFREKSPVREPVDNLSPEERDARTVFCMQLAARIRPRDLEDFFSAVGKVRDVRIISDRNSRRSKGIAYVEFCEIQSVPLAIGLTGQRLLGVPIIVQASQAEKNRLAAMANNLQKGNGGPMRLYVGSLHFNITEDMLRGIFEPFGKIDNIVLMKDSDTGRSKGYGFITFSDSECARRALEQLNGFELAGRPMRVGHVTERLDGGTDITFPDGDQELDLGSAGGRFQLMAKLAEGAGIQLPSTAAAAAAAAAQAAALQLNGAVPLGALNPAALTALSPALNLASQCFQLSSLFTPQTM
UniProt O60518: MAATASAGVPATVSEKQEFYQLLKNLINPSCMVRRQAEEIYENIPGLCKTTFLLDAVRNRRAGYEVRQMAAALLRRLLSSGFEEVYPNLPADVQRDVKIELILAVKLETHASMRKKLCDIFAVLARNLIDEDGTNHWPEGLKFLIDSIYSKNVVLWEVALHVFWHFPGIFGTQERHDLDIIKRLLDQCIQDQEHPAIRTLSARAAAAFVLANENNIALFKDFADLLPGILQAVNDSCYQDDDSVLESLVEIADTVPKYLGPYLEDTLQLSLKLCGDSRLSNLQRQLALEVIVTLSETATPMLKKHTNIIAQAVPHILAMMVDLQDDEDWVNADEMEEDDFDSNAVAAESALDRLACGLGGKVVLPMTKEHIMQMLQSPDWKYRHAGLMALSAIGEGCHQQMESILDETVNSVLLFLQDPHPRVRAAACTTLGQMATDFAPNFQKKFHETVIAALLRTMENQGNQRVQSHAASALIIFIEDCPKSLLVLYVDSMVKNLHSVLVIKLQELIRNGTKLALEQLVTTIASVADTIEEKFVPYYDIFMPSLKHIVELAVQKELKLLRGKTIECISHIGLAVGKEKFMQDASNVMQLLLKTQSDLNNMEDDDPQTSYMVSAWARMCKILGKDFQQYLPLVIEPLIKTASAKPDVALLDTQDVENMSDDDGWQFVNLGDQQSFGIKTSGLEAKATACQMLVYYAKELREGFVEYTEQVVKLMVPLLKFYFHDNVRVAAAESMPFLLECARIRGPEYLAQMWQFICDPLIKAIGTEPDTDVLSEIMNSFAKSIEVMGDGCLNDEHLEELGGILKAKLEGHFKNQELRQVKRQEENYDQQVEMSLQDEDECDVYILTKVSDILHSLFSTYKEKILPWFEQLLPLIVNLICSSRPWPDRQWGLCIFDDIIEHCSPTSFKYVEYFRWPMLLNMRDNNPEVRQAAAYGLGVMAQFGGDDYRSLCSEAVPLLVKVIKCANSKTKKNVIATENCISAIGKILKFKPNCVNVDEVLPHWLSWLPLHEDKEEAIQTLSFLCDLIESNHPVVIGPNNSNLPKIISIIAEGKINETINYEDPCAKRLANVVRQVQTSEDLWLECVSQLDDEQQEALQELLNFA
UniProt O95716: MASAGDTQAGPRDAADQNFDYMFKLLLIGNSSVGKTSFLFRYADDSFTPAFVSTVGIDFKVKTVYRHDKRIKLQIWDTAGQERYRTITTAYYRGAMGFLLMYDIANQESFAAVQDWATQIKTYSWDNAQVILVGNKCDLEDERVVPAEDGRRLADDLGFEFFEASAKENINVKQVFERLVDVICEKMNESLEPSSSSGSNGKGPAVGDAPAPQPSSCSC
UniProt O75884: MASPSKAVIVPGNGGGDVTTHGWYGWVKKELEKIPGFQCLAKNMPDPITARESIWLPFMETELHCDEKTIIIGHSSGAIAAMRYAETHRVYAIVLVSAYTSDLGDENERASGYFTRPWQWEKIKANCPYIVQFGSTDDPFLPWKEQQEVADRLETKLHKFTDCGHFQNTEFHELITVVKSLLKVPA
UniProt Q9H6Z4: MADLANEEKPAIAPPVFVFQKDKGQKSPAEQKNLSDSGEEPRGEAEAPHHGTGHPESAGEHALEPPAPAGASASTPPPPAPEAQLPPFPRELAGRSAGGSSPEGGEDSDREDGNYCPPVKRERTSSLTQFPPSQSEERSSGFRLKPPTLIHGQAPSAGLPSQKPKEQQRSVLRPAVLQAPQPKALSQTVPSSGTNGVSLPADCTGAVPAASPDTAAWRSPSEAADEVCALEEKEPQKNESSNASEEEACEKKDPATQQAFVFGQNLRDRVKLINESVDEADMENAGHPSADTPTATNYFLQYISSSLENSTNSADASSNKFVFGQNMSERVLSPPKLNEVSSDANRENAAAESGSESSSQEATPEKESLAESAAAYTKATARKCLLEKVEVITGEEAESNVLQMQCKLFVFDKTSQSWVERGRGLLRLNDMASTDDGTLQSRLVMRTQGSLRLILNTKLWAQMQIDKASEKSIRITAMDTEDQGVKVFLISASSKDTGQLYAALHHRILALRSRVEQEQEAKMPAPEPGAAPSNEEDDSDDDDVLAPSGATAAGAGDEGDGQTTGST

The other results are listed elsewhere or left out.

Compound in one assay: CC(C)(C)Cn1c(N)nc2ccc(-c3[nH]c(C(C)(C)C)nc3-c3ccc(F)cc3)nc21 [ralimetinib]
The assay is described as follows: log2 fold change, soluble protein after heating vs DMSO (PISA); higher = thermal stabilisation; K562 cells, 10 uM, 30 min; active = over 0.2 and 3.5 SD of the protein, either way, in both replicates (recomputed). In outline: (§1)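 Soluble protein was quantified by TMTpro 16plex LC-MS/MS after channel sums were equalised. It was obtained as the supernatant after 21,000xg for 90 min from pooled aliquots of K562 cells (2×10^6 cells/mL, 10 μM compound, 30 min) heated for 3 min across 48°C-58°C and extracted in PBS with 0.5% NP-40 at 4°C. Thermal stability values are relative to control samples and come from duplicates. They are given as log2 fold changes.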
Turning to RBM14 (UniProt Q96PK6), the log2 fold change is inactive: 0.118.

For the target RBKS (UniProt Q9H477), the log2 fold change is inactive: -0.195.

With RAB28 (UniProt P51157), the log2 fold change is inactive: -0.137.

Regarding RAD50, A0A494C0Y7, the log2 fold change is inactive: -0.085.

On to RAB3B (UniProt P20337), for which the log2 fold change was inactive: -0.137.

In the case of RAI1 (UniProt Q7Z5J4), the log2 fold change was inactive: -0.278.

For RAB11FIP5 (UniProt Q9BXF6), the log2 fold change is inactive: -0.066.

On to RASSF1 (UniProt Q9NS23), for which the log2 fold change is inactive: 0.042.

In the case of RABEP2 (UniProt Q9H5N1), the log2 fold change was inactive: -0.07.

In the case of RASA1 (UniProt P20936), the log2 fold change was inactive: 0.033.

In the case of RBM23 (UniProt Q86U06), the log2 fold change is inactive: -0.029.

As to RASA2 (UniProt Q15283), the log2 fold change was inactive: -0.396.

For the target RAP1B (UniProt F5GWU8), the log2 fold change was inactive: -0.112.

RAD51D (UniProt O75771): the log2 fold change was inactive: -0.248.

For the target RANBP6 (UniProt O60518), the log2 fold change was inactive: 0.009.

On to RAB27B (UniProt O00194), for which the log2 fold change was inactive: -0.001.

On to RAPGEF5, A0A590UJR0, for which the log2 fold change is inactive: -0.156.

Turning to RALGAPB (UniProt Q86X10), the log2 fold change is inactive: 0.014.

Regarding RASSF3 (UniProt Q86WH2), the log2 fold change was inactive: -0.021.

Regarding RAB3D (UniProt O95716), the log2 fold change was inactive: 0.133.

Compound in a further assay: CC(C)(O)CC(=O)NCCn1ccc2ncnc(Nc3ccc(Oc4cccc(C(F)(F)F)c4)c(Cl)c3)c21
Described as above. Summed up:
as §1
Take RAB19 isoform 2 (UniProt A4D1S5): the log2 fold change was inactive: -0.057.

For the target RAI1 (UniProt Q7Z5J4), the log2 fold change was inactive: 0.105.

RALBP1 (UniProt Q15311): the log2 fold change was inactive: 0.102.

With RASA1 (UniProt P20936), the log2 fold change is inactive: 0.023.

For the target RBM23 (UniProt Q86U06), the log2 fold change is inactive: -0.271.

Regarding RASA2 (UniProt Q15283), the log2 fold change is inactive: -0.008.

Take RBCK1 (UniProt Q9BYM8): the log2 fold change was inactive: -0.111.

In the case of RBBP9 (UniProt O75884), the log2 fold change is inactive: -0.079.

For the target RALGAPB (UniProt Q86X10), the log2 fold change was inactive: -0.026.

Compound in a further assay: CC(C)C1=C2N=C(C=C(N2N=C1)NCC3=CC=CC=C3)NCCCCCCN
Described as above. In outline: as §1
With RBBP4 isoform 2 (UniProt Q09028), the log2 fold change was inactive: 0.123.

RBM14 (UniProt Q96PK6): the log2 fold change is inactive: -0.214.

RAB28 (UniProt P51157): the log2 fold change is inactive: 0.114.

For RAB3B (UniProt P20337), the log2 fold change was inactive: -0.102.

For the target RBL1 (UniProt P28749), the log2 fold change was inactive: 0.145.

For the target RANBP3 isoform 2 (UniProt Q9H6Z4), the log2 fold change was inactive: 0.067.

As for RAI1 (UniProt Q7Z5J4), the log2 fold change is inactive: -0.465.

For RABEP2 (UniProt Q9H5N1), the log2 fold change was inactive: -0.095.

With RASA1 (UniProt P20936), the log2 fold change was inactive: -0.016.

Take RBM23 (UniProt Q86U06): the log2 fold change was inactive: -0.239.

For RBBP8 isoform 2 (UniProt Q99708), the log2 fold change was inactive: 0.063.

As to RBCK1 (UniProt Q9BYM8), the log2 fold change is inactive: 0.03.

For the target RAD51D (UniProt O75771), the log2 fold change is inactive: 0.017.

Take RAB27B (UniProt O00194): the log2 fold change is inactive: 0.054.

Turning to RAPGEF5, A0A590UJR0, the log2 fold change is inactive: 0.155.

For RASSF3 (UniProt Q86WH2), the log2 fold change was inactive: 0.107.

RAB3D (UniProt O95716): the log2 fold change is inactive: 0.121.
